Test results taken from patent publication US20250161404A1, “METHODS AND COMPOSITIONS FOR THE CONTROL OF INFLAMMATION IN SKIN DISEASE” (VANDERBILT UNIVERSITY, priority 2023, published 2025).
Read-outs that look alike come from different tables or passages of the source. Not every detail of the peptide structures is certain; ends, links or a residue may be inferred. Where a SMILES comes first, the peptide text is derived from it. Bridges are numbered along the chain shown (N, C = ends).

Assays:
[1] = tested on: metabolic hypersensitivity to a sublethal dose of LPS; settings: ldlr−/− combined with the Western Diet; cited from earlier work
bacteria = settings: in vivo; cited from earlier work
[2] = tested on: cellular infiltration and Ki67-positive cells in MC903-challenged pinna; experiment: Immunohistochemistry of pinna samples of MC903-challenged mice, semiquantitative IHC scoring; format: in vivo, C57BL/6 female mice

CSCC[C@@H]1NC(=O)[C@H](CC(C)C)NC(=O)[C@H](CCCCN)NC(=O)[C@H](CCC(N)=O)NC(=O)[C@H](CCCNC(=N)N)NC(=O)[C@H](CCCCN)NC(=O)[C@H](CCCNC(=N)N)NC(=O)[C@H](CCC(N)=O)NC(=O)[C@H](C(C)C)NC(=O)[C@@H](NC(=O)[C@@H]2CCCN2C(=O)[C@H](C)NC(=O)[C@H](CC(C)C)NC(=O)[C@H](CC(C)C)NC(=O)[C@H](C)NC(=O)[C@H](CC(C)C)NC(=O)[C@H](CC(C)C)NC(=O)[C@@H](NC(=O)[C@H](C)NC(=O)[C@@H]2CCCN2C(=O)[C@H](CC(C)C)NC(=O)[C@H](CC(C)C)NC(=O)[C@H](C)NC(=O)[C@@H](NC(=O)[C@H](C)NC(=O)[C@H](C)N)C(C)C)C(C)C)CSSC[C@@H](C(=O)O)NC(=O)[C@@H]2CCCN2C1=O [cSN50.1] (H-AAVALLPAVLLALLAPCVQRKRQKLMPC-OH; disulfide 17-28; N-terminus and C-terminus assumed)
metabolic hypersensitivity to a sublethal dose of LPS [1]: controlled | innate immunity-mediated clearance of bacteria (bacteria): increases | proliferation of Ki67-positive cells in the basal zone of the epidermis [2]: suppressed | proliferation of Ki67-positive cells in the basal zone of the epidermis ([2]; listed as NTCI): attenuated
